Source: PubChem BioAssay AID1259254 (NCATS, 2017)

Test: 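Finding genes that stop cells copying their DNA twice in one cycle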 (primary screen)
System: human HCT116 colorectal cancer cells
Knock-down reagent: single siRNA against human genes
Duration: 3 days
Measurement: 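Nuclei stained with Hoechst and imaged; cell-cycle phase assigned by DNA content; G2 share scaled per plate, non-targeting siRNA 0%, GMNN siRNA 100%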
Direction: G2 robust z-score and G2 cells, % of GMNN control: higher = more G2 cells, more excess DNA replication
Hit rule: 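Active siRNAs have a G2 robust z of 5 or more median absolute deviations over the median, which in these data means about 38% or higher of GMNN control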
Here is one part, drawn at random, of about 59,000 reagents tested. About 1,550 of them (2.6%) were called active. 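G2 share is only a proxy for re-replication; each gene was hit by three separate siRNAs, and active genes were retested.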 Unmarked entries are inactive. The numbers tell different reagents against one gene apart. Not all columns of the deposit are shown. Not stated in the record: the amount of reagent.

For THOP1 #1, what does the deposit list?
G2 robust z-score: 1.3; G2 cells, % of GMNN control: 12.1

How did the screen score THOP1 #2?
G2 robust z-score: 0.105; G2 cells, % of GMNN control: 3.71

For THOP1 #3, how do the results read?
G2 robust z-score: 1.03; G2 cells, % of GMNN control: 10.2

How did the screen score MANEAL #1?
G2 robust z-score: -0.434; G2 cells, % of GMNN control: -0.0859

With MANEAL #2, how do the results read?
G2 robust z-score: -1.27; G2 cells, % of GMNN control: -5.99

For MANEAL #3, how do the results read?
G2 robust z-score: 2.72; G2 cells, % of GMNN control: 22.1

What did the screen give for ABHD11 #1?
G2 robust z-score: 1.23; G2 cells, % of GMNN control: 11.6

What did the screen give for ABHD11 #2?
G2 robust z-score: 1.28; G2 cells, % of GMNN control: 12

What did the screen give for ABHD11 #3?
G2 robust z-score: 2.91; G2 cells, % of GMNN control: 23.5

Which result is listed for KRT31 #1?
G2 robust z-score: -0.79; G2 cells, % of GMNN control: -2.59

What is on record for KRT31 #2?
G2 robust z-score: 0.852; G2 cells, % of GMNN control: 8.96

What is on record for KRT31 #3?
G2 robust z-score: -0.658; G2 cells, % of GMNN control: -1.66

Individual results from above:
MANEAL #3, G2 robust z-score: 2.72
Result for MANEAL #2 under “G2 cells, % of GMNN control”: -5.99
Result of MANEAL #1 under “G2 robust z-score”: -0.434

Further entries:
For APOO #1, what does the deposit list?
G2 robust z-score: -0.625; G2 cells, % of GMNN control: -1.43

For APOO #2, what does the deposit list?
G2 robust z-score: -1.08; G2 cells, % of GMNN control: -4.61

With APOO #3, what was measured?
G2 robust z-score: 0.258; G2 cells, % of GMNN control: 4.78

What is on record for NAPB #1?
G2 robust z-score: -0.707; G2 cells, % of GMNN control: -2.01

Which result is listed for NAPB #2?
G2 robust z-score: 3.25; G2 cells, % of GMNN control: 25.8

With NAPB #3, how do the results read?
G2 robust z-score: 0.94; G2 cells, % of GMNN control: 9.58
